Measured values as given in US11208387B2 (Genentech, Inc., priority 2019, dated 2021).

Assay: general procedure: solution-phase peptide synthesis; HATU/DIEA
Settings: coupling step

Q: Which step yield does the source give for “(8S,11S,14S)-18- hydroxy-11-methyl- 14-[methyl-[(2S)-2- [[2-(4-isopropoxy- phenyl)-4,6-dimethyl- pyrimidine-5- carbonyl]amino]-3- (sulfamoylamino)- propanoyl]amino]- 10,13-dioxo-3,17- bis[(2R)-3-amino-2- hydroxy-propoxy]- 9,12-diazatricyclo- [13.3.1.12,6]icosa- 1(18),2(20),3,5,15(19), 16-hexaene-8- carboxylic acid” here?
A: 97.3%

Q: For “(8S,11S,14S)-18- hydroxy-11-methyl- 14-[methyl-[(2S)-4- amino-2-[[2-(4-tert- butylphenyl)-4,6- dimethyl-pyrimidine- 5-carbonyl]amino]- butanoyl]amino]- 10,13-dioxo-3,17- bis[(2R)-3-amino-2- hydroxy-propoxyl]- 9,12-diazatricyclo- [13.3.1.12,6]icosa- 1(18),2(20),3,5,15(19), 16-hexaene-8- carboxylic acid”, which step yield is on record?
A: 83.8% yield

Same assay, conditions: late stage modification step

Q: Which step yield does the source give for “(8S,11S,14S)-18- hydroxy-11-methyl-14- [methyl-[(2S)-2-[[1-(4- tert-butylphenyl)-6- oxo-pyridazine-4- carbonyl]amino]-3- (sulfamoylamino)- propanoyl]amino]- 10,13-dioxo-3,17- bis[(2R)-3-amino-2- hydroxy-propoxy]- 9,12-diazatricyclo- [13.3.1.12,6]icosa- 1(18),2(20),3,5,15(19), 16-hexaene-8- carboxylic acid” here?
A: 32.9%

Q: Which step yield does the source give for “(8S,11S,14S)-18- hydroxy-11-methyl- 14-[methyl-[(2S)-2- [[2-(4-isopropoxy- phenyl)-4-methyl- pyrimidine-5- carbonyl]amino]-3- (sulfamoylamino)- propanoyl]amino]- 10,13-dioxo-3,17- bis[(2R)-3-amino-2- hydroxy-propoxy]- 9,12-diazatricyclo- [13.3.1.12,6]icosa- 1(18),2(20),3,5,15(19), 16-hexaene-8- carboxylic acid” here?
A: 63.0%

Q: For “(8S,11S,14S)-18- hydroxy-11-methyl- 14-[methyl-[(2S)-2- [[2-[4-(3,3-dimethyl- butoxy)phenyl]-4- methyl-pyrimidine- 5-carbonyl]amino]-3- (sulfamoylamino)- propanoyl]amino]- 10,13-dioxo-3,17- bis[(2R)-3-amino-2- hydroxy-propoxy]- 9,12-diazatricyclo- [13.3.1.12,6]icosa- 1(18),2(20),3,5,15(19), 16-hexaene-8- carboxylic acid”, which step yield is on record?
A: 48.8%

Q: With “(8S,11S,14S)-18- hydroxy-11-methyl- 14-[methyl-[(2S)-2- [[3-amino-5-(4-tert- butylphenyl)pyrazine- 2-carbonyl]amino]-3- (sulfamoylamino)- propanoyl]amino]- 10,13-dioxo-3,17- bis[(2R)-3-amino-2- hydroxy-propoxy]- 9,12-diazatricyclo- [13.3.1.12,6]icosa- 1(18),2(20),3,5,15(19), 16-hexaene-8- carboxylic acid” as the substance, how does the step yield read?
A: 100% yield

Q: With “(8S,11S,14S)-18- hydroxy-11-methyl- 14-[methyl-[(2S)-4- amino-2-[[1-(4-tert- butylphenyl)-6-oxo- pyridazine-4- carbonyl]amino]- butanoyl]amino]- 10,13-dioxo-3,17- bis[(2R)-3-amino-2- hydroxy-propoxy]- 9,12-diazatricyclo- [13.3.1.12,6]icosa- 1(18),2(20),3,5,15(19), 16-hexaene-8- carboxylic acid” as the substance, how does the step yield read?
A: 68.7%

Q: For “(8S,11S,14S)-18- hydroxy-11-methyl- 14-[methyl-[(2S)-4- amino-2-[[2-(4- isopropoxyphenyl)- 4-methyl-pyrimidine- 5-carbonyl]amino]- butanoyl]amino]- 10,13-dioxo-3,17- bis[(2R)-3-amino-2- hydroxy-propoxy]- 9,12-diazatricyclo- [13.3.1.12,6]icosa- 1(18),2(20),3,5,15(19), 16-hexaene-8- carboxylic acid”, which step yield is on record?
A: 100% yield

Q: With “(8S,11S,14S)-18- hydroxy-11-methyl- 14-[methyl-[(2S)-4- amino-2-[[4-amino- 2-[4-(3,3-dimethyl- butoxy)phenyl]-6- methyl-pyrimidine- 5-carbonyl]amino]- butanoyl]amino]- 10,13-dioxo-3,17- bis[(2R)-3-amino-2- hydroxy-propoxy]- 9,12-diazatricyclo- [13.3.1.12,6]icosa- 1(18),2(20),3,5,15(19), 16-hexaene-8- carboxylic acid” as the substance, how does the step yield read?
A: 99.1%
